Among the data in publication PMC4587736 are binding values, retold here.

Results are given in words; binding and its absence hold for the method and conditions named. Tags and fused reporters may be left off the sequences shown.

Test [1] concerns the target T1, SmKIN24 fused to the GAL4 DNA-binding domain (pBD-SmKIN24) (Sordaria macrospora) (UniProt F7VQV9).
T1 sequence: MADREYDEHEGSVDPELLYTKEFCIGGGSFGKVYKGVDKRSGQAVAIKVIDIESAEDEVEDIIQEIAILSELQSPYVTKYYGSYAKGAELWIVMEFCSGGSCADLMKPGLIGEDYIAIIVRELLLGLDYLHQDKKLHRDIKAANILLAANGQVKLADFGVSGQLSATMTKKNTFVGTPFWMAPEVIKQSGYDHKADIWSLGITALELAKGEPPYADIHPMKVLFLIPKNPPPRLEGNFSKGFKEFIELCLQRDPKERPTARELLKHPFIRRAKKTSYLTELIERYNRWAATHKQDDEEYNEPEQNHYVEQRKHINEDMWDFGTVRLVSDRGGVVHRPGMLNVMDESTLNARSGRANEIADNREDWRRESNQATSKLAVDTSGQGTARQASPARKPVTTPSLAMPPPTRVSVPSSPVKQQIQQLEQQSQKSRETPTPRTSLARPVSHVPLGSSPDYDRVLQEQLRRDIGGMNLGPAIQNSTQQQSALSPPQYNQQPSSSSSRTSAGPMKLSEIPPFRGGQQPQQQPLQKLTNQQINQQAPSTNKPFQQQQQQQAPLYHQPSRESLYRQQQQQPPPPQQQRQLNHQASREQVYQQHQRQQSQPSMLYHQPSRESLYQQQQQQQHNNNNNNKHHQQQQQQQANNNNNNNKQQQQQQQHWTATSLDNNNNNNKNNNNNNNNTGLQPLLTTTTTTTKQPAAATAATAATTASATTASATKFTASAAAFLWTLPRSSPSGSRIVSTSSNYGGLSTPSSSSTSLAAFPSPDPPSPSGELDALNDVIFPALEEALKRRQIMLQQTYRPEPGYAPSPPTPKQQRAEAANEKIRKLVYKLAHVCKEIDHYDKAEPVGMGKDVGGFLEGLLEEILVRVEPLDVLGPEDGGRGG
Briefly: two-hybrid; Matchmaker two-hybrid system 3; kinases fused to GAL4 binding domain (pGBKT7, Y187), partners fused to GAL4 activation domain (pGADT7, AH109); mated diploids, drop plate assay on SD without leu, trp and ade.

The target in test [2] is T2, SmKIN3 fused to the GAL4 DNA-binding domain (pBD-SmKIN3) (Sordaria macrospora) (UniProt F7VYS5).
T2 sequence: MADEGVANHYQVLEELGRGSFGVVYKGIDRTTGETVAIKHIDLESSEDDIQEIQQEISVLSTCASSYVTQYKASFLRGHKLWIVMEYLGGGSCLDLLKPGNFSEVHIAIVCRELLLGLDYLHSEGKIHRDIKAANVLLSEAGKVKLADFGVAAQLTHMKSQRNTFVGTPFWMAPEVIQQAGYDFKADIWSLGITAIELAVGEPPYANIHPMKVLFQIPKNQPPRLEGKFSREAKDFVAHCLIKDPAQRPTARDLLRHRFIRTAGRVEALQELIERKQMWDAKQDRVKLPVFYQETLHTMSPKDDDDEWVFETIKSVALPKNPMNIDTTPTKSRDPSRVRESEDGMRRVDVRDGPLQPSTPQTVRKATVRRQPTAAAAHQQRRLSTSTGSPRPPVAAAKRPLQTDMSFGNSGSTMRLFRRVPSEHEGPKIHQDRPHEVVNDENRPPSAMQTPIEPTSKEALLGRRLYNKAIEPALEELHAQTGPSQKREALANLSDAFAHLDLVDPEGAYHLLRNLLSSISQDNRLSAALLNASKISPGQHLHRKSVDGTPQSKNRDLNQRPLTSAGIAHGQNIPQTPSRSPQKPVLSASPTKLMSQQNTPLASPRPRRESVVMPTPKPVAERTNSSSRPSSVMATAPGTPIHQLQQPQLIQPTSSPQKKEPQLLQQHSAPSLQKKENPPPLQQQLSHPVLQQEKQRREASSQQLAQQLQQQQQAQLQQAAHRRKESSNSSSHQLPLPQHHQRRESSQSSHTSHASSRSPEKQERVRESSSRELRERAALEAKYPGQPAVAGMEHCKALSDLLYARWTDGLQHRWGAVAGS
The test is described as above.

With “SmMOB3 fused to the GAL4 activation domain (Sordaria macrospora)”, the binding result in test [1] and in test [2] was “no binding” each time.
